± gives the standard deviation of the averaged measurements. Only a part is listed here, and it is no random draw.

Sequences of proteins named here, by UniProt entry; tags and fusion partners are left off. A change or cut given only in a name is not applied to a line headed by its entry.
UniProt Q9UHR6: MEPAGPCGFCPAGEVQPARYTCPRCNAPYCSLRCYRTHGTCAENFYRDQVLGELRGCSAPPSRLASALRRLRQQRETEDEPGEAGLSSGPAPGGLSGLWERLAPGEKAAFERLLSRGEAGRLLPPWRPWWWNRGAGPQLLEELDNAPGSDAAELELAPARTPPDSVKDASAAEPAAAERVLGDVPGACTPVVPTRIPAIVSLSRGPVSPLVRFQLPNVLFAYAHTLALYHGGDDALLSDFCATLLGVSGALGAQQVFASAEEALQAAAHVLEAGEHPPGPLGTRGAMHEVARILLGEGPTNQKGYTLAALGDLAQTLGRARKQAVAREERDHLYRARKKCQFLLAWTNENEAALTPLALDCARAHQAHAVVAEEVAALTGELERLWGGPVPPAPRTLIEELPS
UniProt Q9UM22: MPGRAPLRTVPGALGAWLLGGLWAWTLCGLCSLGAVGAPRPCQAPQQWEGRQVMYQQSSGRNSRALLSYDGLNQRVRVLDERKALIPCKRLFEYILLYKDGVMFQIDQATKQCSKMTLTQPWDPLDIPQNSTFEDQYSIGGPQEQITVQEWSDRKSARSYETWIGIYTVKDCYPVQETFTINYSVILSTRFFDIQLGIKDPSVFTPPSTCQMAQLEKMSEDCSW
UniProt Q9Y222: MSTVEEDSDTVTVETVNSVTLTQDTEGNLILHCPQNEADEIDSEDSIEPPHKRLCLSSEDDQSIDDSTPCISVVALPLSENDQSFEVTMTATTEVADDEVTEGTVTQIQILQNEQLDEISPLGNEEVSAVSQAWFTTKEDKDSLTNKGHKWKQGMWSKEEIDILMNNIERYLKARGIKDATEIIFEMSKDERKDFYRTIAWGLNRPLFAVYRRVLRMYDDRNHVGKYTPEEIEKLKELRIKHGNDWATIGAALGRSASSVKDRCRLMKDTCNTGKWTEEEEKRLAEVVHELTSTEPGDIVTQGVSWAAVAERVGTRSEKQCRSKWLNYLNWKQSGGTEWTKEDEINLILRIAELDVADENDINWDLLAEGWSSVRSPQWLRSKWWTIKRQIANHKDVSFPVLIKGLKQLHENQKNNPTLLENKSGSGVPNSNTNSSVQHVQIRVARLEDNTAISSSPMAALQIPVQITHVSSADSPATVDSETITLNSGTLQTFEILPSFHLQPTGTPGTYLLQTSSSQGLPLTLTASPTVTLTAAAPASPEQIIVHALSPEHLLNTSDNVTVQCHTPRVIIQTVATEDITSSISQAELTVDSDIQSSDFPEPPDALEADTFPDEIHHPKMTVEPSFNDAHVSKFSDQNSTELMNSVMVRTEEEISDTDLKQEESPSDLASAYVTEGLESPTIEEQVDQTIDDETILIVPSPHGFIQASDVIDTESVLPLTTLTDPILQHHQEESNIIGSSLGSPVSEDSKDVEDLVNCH

Compound in this test: Nc1ncnc2c1ncn2[C@@H]1O[C@H](COP(=O)(O)OP(=O)(O)NP(=O)(O)O)[C@@H](O)[C@H]1O [adenylyl imidodiphosphate]
Nature of the test: NP40-soluble protein abundance relative to vehicle (solubility fold change) (ratio); higher = more soluble protein in presence of AMP-PNP. The method, boiled down: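 Values are fold changes against the detergent-processed vehicle, based on vsn-normalised intensities. Jurkat crude lysate was treated at eight concentrations from 0.1 to 10 mM (10 min at room temperature, then 3 min at 37 °C), solubilised with 0.8% NP40 and benzonase, ultracentrifuged and analysed by TMT-labelled LC-MS/MS over three independent experiments.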

On to ZNHIT2 (UniProt Q9UHR6), for which the NP40-soluble protein abundance (concentration: 1mM) stood at 0.9613 ± 0.0012; the NP40-soluble protein abundance (concentration: 2mM) amounted to 0.984 ± 0.044; the NP40-soluble protein abundance (concentration: 4mM) is 1 ± 0.059; the NP40-soluble protein abundance (concentration: 6mM) was determined as 0.974 ± 0.037; the NP40-soluble protein abundance (concentration: 8mM) is 0.986 ± 0.033; the NP40-soluble protein abundance (concentration: 10mM) came out at 0.993 ± 0.037.

Turning to UniProt Q9UL54-2, the NP40-soluble protein abundance reads like this: (concentration: 1mM) 0.99 ± 0.026; (concentration: 2mM) 0.992 ± 0.019; (concentration: 4mM) 1.01 ± 0.02; (concentration: 6mM) 1.01 ± 0.029; (concentration: 8mM) 1.02 ± 0.042; (concentration: 10mM) 1.01 ± 0.035.

Turning to EPDR1 (UniProt Q9UM22), the NP40-soluble protein abundance was 1.03 ± 0.015 (concentration: 1mM); 1.03 ± 0.06 (concentration: 2mM); 1.06 ± 0.046 (concentration: 4mM); 1.09 ± 0.06 (concentration: 6mM); 1.09 ± 0.016 (concentration: 8mM); 1.102 ± 0.01 (concentration: 10mM).

Take “UniProt Q9ULU4-11|Q9ULU4-19|Q9ULU4-7|A0A087WYS3|Q9ULU4-13|Q9ULU4-22|Q9ULU4-8|Q9ULU4-9”: the NP40-soluble protein abundance by setting is: (concentration: 1mM) 1.03 ± 0.042; (concentration: 2mM) 1.07 ± 0.05; (concentration: 4mM) 1.05 ± 0.021; (concentration: 6mM) 1.05 ± 0.062; (concentration: 8mM) 1.05 ± 0.024; (concentration: 10mM) 1.12 ± 0.021.

UniProt Q9Y222 and related entries: the NP40-soluble protein abundance amounted to 0.989 ± 0.043 (concentration: 1mM); 0.992 ± 0.04 (concentration: 2mM); 0.974 ± 0.029 (concentration: 4mM); 1.01 ± 0.064 (concentration: 6mM); 1.02 ± 0.04 (concentration: 8mM); 0.992 ± 0.027 (concentration: 10mM).

The values above are taken from the supplement of paper PMC6411743.
